Experimental data as given in patent publication EP3939964B1, “COMBINATIONS FOR INHIBITING NHE-MEDIATED ANTIPORT IN THE TREATMENT OF DISORDERS ASSOCIATED WITH FLUID RETENTION OR SALT OVERLOAD AND GASTROINTESTINAL TRACT DISORDERS” (dated 2026).

What was measured:
[1] = tested on: Normal female Sprague Dawley rats; assay: Pharmacodynamic model: effect of test compounds on fecal water content; conditions: one way ANOVA with Dunnett post tests, control vs treated
[2] = Determination of compound remaining in feces; conditions: oral 0.1 mg/kg, three rats

SMILES | Significant? [1] | recovery in 72-hour fecal samples (summary in words) [2]
CN1Cc2c(Cl)cc(Cl)cc2C(c2ccc(S(=O)(=O)NCCOCCOCCNC(=O)Nc3ccc(NC(=O)NCCOCCOCCNS(=O)(=O)c4ccc(C5CN(C)Cc6c(Cl)cc(Cl)cc65)cc4)cc3)cc2)C1 (stereo not shown) | Y (Results are significant if p < 0.05) | 
CN1Cc2c(Cl)cc(Cl)cc2C(c2cccc(S(=O)(=O)NCCOCCOCCNC(=O)Nc3ccc(NC(=O)NCCOCCOCCNS(=O)(=O)c4cccc(C5CN(C)Cc6c(Cl)cc(Cl)cc65)c4)cc3)c2)C1 (single isomer, unassigned) | Y (Results are significant if p < 0.05) | near quantitative recovery
CN1Cc2c(Cl)cc(Cl)cc2C(c2cccc(S(=O)(=O)NCCOCCOCCNC(=O)Nc3ccc(NC(=O)NCCOCCOCCNS(=O)(=O)c4cccc(C5CN(C)Cc6c(Cl)cc(Cl)cc65)c4)cc3)c2)C1 (stereo not shown) | Y (Results are significant if p < 0.05) | 

The structures given here were assigned with low confidence; some may be wrong.
